The text below walks through data of article PMC12704761, “RAD51AP1 is a versatile RAD51 modulator” (Proceedings of the National Academy of Sciences of the …, 2025).

Residue numbers refer to the chain shown, from its start. These are yes or no findings as the source states them, for the method shown. Some results given as binding are weak or reduced against the parent protein; the word gives no strength.

For assay [1], the target named is T1, RAD51AP1 (RAD51 associated protein 1), full-length wild type (UniProt Q96B01).
T1 sequence: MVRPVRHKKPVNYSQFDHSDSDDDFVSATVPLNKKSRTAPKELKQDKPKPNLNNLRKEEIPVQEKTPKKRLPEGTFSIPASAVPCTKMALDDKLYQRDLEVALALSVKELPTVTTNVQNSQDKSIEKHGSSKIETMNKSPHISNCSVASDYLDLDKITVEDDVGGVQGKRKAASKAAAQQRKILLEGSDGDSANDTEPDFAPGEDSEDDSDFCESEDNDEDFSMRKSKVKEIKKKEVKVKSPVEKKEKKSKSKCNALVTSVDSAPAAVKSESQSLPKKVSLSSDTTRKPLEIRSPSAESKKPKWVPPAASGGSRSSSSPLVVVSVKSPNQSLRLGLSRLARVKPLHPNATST
The assay can be described thus: pull-down; full-length RAD51AP1 (2 µM) with RAD51 or RAD51-F86E (2 µM), with and without ATP; both purified.

Assay [2] has as its target T2, RAD51AP1 Site-NC double mutant, full-length (UniProt Q96B01).
T2 sequence: T1 sequence with K300A, K303A, W304A, P306A, P307A, H346A
The assay can be described thus: pull-down; His-tagged full-length RAD51AP1 (1 µM) immobilised on magnetic cobalt resin, RAD51 (1 µM) in pull-down buffer with ATP and Mg2+, 37 °C, 5 min; SDS-PAGE of supernatant and eluate; both purified.

For assay [3], the target named is T1, RAD51AP1 (RAD51 associated protein 1), full-length wild type. The assay can be described thus: condition: only without ATP and Mg2+ in the pull-down buffer; pull-down; His-tagged full-length RAD51AP1 (1 µM) on cobalt resin, RAD51 (1 µM), ATP and Mg2+ omitted from the pull-down buffer; both purified.

RAD51-F86E (from UniProt Q06609 1-339): the binding entry in assay [1] was “no binding (tested: 2 μM)”.

B1: RAD51 recombinase (natural protein)
chain: MAMQMQLEANADTSVEEESFGPQPISRLEQCGINANDVKKLEEAGFHTVEAVAYAPKKELINIKGISEAKADKILAEAAKLVPMGFTTATEFHQRRSEIIQITTGSKELDKLLQGGIETGSITEMFGEFRTGKTQICHTLAVTCQLPIDRGGGEGKAMYIDTEGTFRPERLLAVAERYGLSGSDVLDNVAYARAFNTDHQTQLLYQASAMMVESRYALLIVDSATALYRTDYSGRGELSARQMHLARFLRMLLRLADEFGVAVVITNQVVAQVDGAAMFAADPKKPIGGNIIAHASTTRLYLRKGRGETRICKIYDSPCLPEAEAMFAINADGVGDAKD
notes: RAD51 recombinase, wild type; expressed from the pCH1-derived plasmid pJ9; In the cryo-EM samples it stood as a filament on ssDNA with Ca2+-ATP, Mg2+-ATP or Mg2+-ADP; the introduction speaks of the human genome and the discussion sets 'mouse proteins' of earlier work apart; source: E. coli BL21 (DE3), coexpressed with His-MBP-BRC4 and GroEL, purified (HisTrap, HiTrap Heparin, HiTrap Q)
Take B1: the binding entry in assay [2] was “binds weakly”; in assay [3], “no binding”.
